Counter-ions that a name gives are not always drawn. This is one part of the list. Many values rest on one well or one pass, so single values are uncertain.
Each molecule was assayed on hsa-miR-132-3p (assay: miR-132-3p level in NGN2-iNs after compound treatment (TMM-normalised, ComBat batch-corrected) (batch-corrected normalised expression (arbitrary units)); higher = higher miR-132-3p expression). Conditions: 10 µM; 24 h; human iPSC-derived NGN2 neurons (BR43).
In the case of `COc1cc2nc(N3CCN(C(=O)C4CCCO4)CC3)nc(N)c2cc1OC` (stereo not drawn) [Terazosin HCl Dihydrate], the “miR-132-3p level in NGN2-iNs” value was 0.617. For `CCc1c2c(nc3ccc(OC(=O)N4CCC(N5CCCCC5)CC4)cc13)-c1cc3c(c(=O)n1C2)COC(=O)[C@]3(O)CC` [Irinotecan HCl Trihydrate], the “miR-132-3p level in NGN2-iNs” value was 1.41. For `CCc1c2c(nc3ccc(OC(=O)N4CCC(N5CCCCC5)CC4)cc13)-c1cc3c(c(=O)n1C2)COC(=O)[C@]3(O)CC` [Irinotecan], the “miR-132-3p level in NGN2-iNs” value was 0.371. In the case of `OC[C@H]1O[C@@H](OCCc2ccc(O)cc2)[C@H](O)[C@@H](O)[C@@H]1O` [Salidroside], the “miR-132-3p level in NGN2-iNs” value was -0.503. For `C[C@H]1[C@H](NC(=O)/C(=N\OC(C)(C)C(=O)O)c2csc(N)n2)C(=O)N1S(=O)(=O)O` [Aztreonam], the “miR-132-3p level in NGN2-iNs” value was 0.249. `CCOC(=O)NCCCC(=O)NCCc1ccccc1` was tested, and the “miR-132-3p level in NGN2-iNs” value was -1.51. With `C=C1/C(=C\C=C2/CCC[C@]3(C)[C@@H]([C@H](C)CCCC(C)(C)O)CC[C@@H]23)C[C@@H](O)C[C@@H]1O` [Calcitriol] the “miR-132-3p level in NGN2-iNs” value was 0.48. In the case of `Cc1cn([C@@H]2C[C@@H](O)[C@H](CO)O2)c(=O)[nH]c1=O` [Telbivudine], the “miR-132-3p level in NGN2-iNs” value was -0.36. `O=C(N/N=C/c1ccc([N+](=O)[O-])o1)c1ccc(O)cc1` [Nifuroxazide] was tested, and the “miR-132-3p level in NGN2-iNs” value was 0.331. `Cc1cccc(Nc2cc(Cl)nc(SCC(=O)O)n2)c1C` was tested, and the “miR-132-3p level in NGN2-iNs” value was -0.0507. With `Cc1cc(NC(=O)c2cccc(NC(=O)/C=C/CN(C)C)c2)ccc1Nc1nccc(-c2cccnc2)n1` the “miR-132-3p level in NGN2-iNs” value was 0.27. In the case of `OCc1ccc(O[C@@H]2O[C@H](CO)[C@@H](O)[C@H](O)[C@H]2O)cc1` [Gastrodin], the “miR-132-3p level in NGN2-iNs” value was -0.273. In the case of `O=C(NC(NC(=S)Nc1ccc(F)c([N+](=O)[O-])c1)C(Cl)(Cl)Cl)C(c1ccccc1)c1ccccc1` (stereo not drawn), the “miR-132-3p level in NGN2-iNs” value was -0.361. In the case of `Cn1cc(C2=C(c3ccc(Cl)cc3Cl)C(=O)NC2=O)c2ccccc21`, the “miR-132-3p level in NGN2-iNs” value was 0.0159. For `CCc1cc(C(N)=S)ccn1` [Ethionamide], the “miR-132-3p level in NGN2-iNs” value was -1.25. In the case of `CCn1cc(C(=O)O)c(=O)c2cc(F)c(N3CCN(C)CC3)cc21` [Pefloxacin Mesylate], the “miR-132-3p level in NGN2-iNs” value was 0.37. For `CCn1cc(C(=O)O)c(=O)c2cc(F)c(N3CCN(C)CC3)cc21` [Pefloxacin Mesylate Dihydrate], the “miR-132-3p level in NGN2-iNs” value was -0.554. For `CCNC(=O)c1noc(-c2cc(Cl)c(O)cc2O)c1-c1ccc(OC)cc1`, the “miR-132-3p level in NGN2-iNs” value was -1.04. For `C[C@@H]1CN(c2c(F)c(N)c3c(=O)c(C(=O)O)cn(C4CC4)c3c2F)C[C@H](C)N1` [Sparfloxacin], the “miR-132-3p level in NGN2-iNs” value was -0.0665. For `COc1cc(NC(=O)c2ccc(-c3ccc(Cl)cc3)o2)cc(OC)c1`, the “miR-132-3p level in NGN2-iNs” value was -1.56. `C[C@]12C=CC(=O)C=C1CC[C@@H]1[C@@H]2C(=O)C[C@@]2(C)[C@H]1CC[C@]2(O)C(=O)CO` [Prednisone] was tested, and the “miR-132-3p level in NGN2-iNs” value was 0.982. For `c1ccc2c(Oc3nc(Nc4ccc(N5CCOCC5)cc4)c4ncn(C5CCCCC5)c4n3)cccc2c1` [Purmorphamine], the “miR-132-3p level in NGN2-iNs” value was -0.375. `CC1(C)[C@@H](O[C@H]2O[C@H](C(=O)O)[C@@H](O)[C@H](O)[C@H]2O[C@@H]2O[C@H](C(=O)O)[C@@H](O)[C@H](O)[C@H]2O)CC[C@]2(C)[C@H]3C(=O)C=C4[C@@H]5C[C@@](C)(C(=O)O)CC[C@]5(C)CC[C@@]4(C)[C@]3(C)CC[C@@H]12` [Ammonium Glycyrrhizinate] was tested, and the “miR-132-3p level in NGN2-iNs” value was 0.888. With `COc1cc2nccc(Oc3ccc(NC(=O)Nc4ccc(F)cc4F)c(F)c3)c2cc1OC` the “miR-132-3p level in NGN2-iNs” value was 0.344. `CNC(=C[N+](=O)[O-])NCCSCc1csc(CN(C)C)n1` [Nizatidine] was tested, and the “miR-132-3p level in NGN2-iNs” value was -0.29. In the case of `CC(C)CN(C[C@@H](O)[C@H](Cc1ccccc1)NC(=O)O[C@H]1CCOC1)S(=O)(=O)c1ccc(N)cc1` [Amprenavir], the “miR-132-3p level in NGN2-iNs” value was -0.0102. With `CS(=O)(=O)Nc1ccc([N+](=O)[O-])cc1Oc1ccccc1` [Nimesulide] the “miR-132-3p level in NGN2-iNs” value was 0.188. In the case of `CO[C@H]1C[C@@H]2CC[C@@H](C)[C@@](O)(O2)C(=O)C(=O)N2CCCC[C@H]2C(=O)O[C@H]([C@H](C)C[C@@H]2CC[C@@H](O)[C@H](OC)C2)CC(=O)[C@H](C)/C=C(\C)[C@@H](O)[C@@H](OC)C(=O)[C@H](C)C[C@H](C)/C=C/C=C/C=C/1C` [Rapamycin (Sirolimus)], the “miR-132-3p level in NGN2-iNs” value was 0.21. With `Cc1ccc(C(=O)NCCCCCC(=O)Nc2ccccc2N)cc1` the “miR-132-3p level in NGN2-iNs” value was -0.515. With `N#Cc1ccc2[nH]c(O)c(-c3ccc(CN4CCOCC4)cn3)c2c1` the “miR-132-3p level in NGN2-iNs” value was -0.239. In the case of `COc1cc2ncnc(Nc3ccc(Cl)cc3F)c2cc1OC`, the “miR-132-3p level in NGN2-iNs” value was -0.385. For `O=C(O)P(=O)(O)O` [Foscarnet Sodium], the “miR-132-3p level in NGN2-iNs” value was -0.222. With `Cc1[nH]c(/C=C2\C(=O)Nc3ccccc32)c(C)c1CCC(=O)O` [Orantinib (SU6668)] the “miR-132-3p level in NGN2-iNs” value was 0.524. In the case of `CN(CCOc1ccc(NS(C)(=O)=O)cc1)CCc1ccc(NS(C)(=O)=O)cc1` [Dofetilide], the “miR-132-3p level in NGN2-iNs” value was -0.476. With `CC(C)NCC(O)c1ccc(NS(C)(=O)=O)cc1` (stereo not drawn) [Sotalol HCl] the “miR-132-3p level in NGN2-iNs” value was -0.358. For `COc1cc(C=O)ccc1O` [Vanillin], the “miR-132-3p level in NGN2-iNs” value was -0.919. In the case of `CSc1cccc(Nc2ncc3cc(-c4c(Cl)cccc4Cl)c(=O)n(C)c3n2)c1`, the “miR-132-3p level in NGN2-iNs” value was 1.31. With `OCc1ccc(-c2ccc(-c3ccc(CO)s3)o2)s1` the “miR-132-3p level in NGN2-iNs” value was 0.435. In the case of `O=c1c(-c2ccc(O)cc2)coc2cc(O)cc(O)c12` [Genistein], the “miR-132-3p level in NGN2-iNs” value was 0.351. `Cc1cc(N2CCOCC2)ccc1Nc1nc(NC2CCCCC2)c2[nH]cnc2n1` was tested, and the “miR-132-3p level in NGN2-iNs” value was -0.347. In the case of `O=C(O)c1ccc(Nc2ncc3c(n2)-c2ccc(Cl)cc2C(c2c(F)cccc2F)=NC3)cc1`, the “miR-132-3p level in NGN2-iNs” value was -0.278. For `COc1cc2c(cc1OC)-c1cc3ccc(OC)c(OC)c3c[n+]1CC2` [Palmatine chloride], the “miR-132-3p level in NGN2-iNs” value was -0.987. `CNC(=C[N+](=O)[O-])NCCSCc1ccc(CN(C)C)o1` [Ranitidine Hydrochloride] was tested, and the “miR-132-3p level in NGN2-iNs” value was -0.835. In the case of `N#C[C@@H]1CCCN1C(=O)CNC12CC3CC(CC(O)(C3)C1)C2` [Vildagliptin (LAF-237)], the “miR-132-3p level in NGN2-iNs” value was 1.33. In the case of `CC(C)C[C@H](NC(=O)CNC(=O)c1cc(Cl)ccc1Cl)B(O)O` [Ixazomib (MLN2238)], the “miR-132-3p level in NGN2-iNs” value was -1.13. `CNC[C@H](O)c1cccc(O)c1` [Phenylephrine HCl] was tested, and the “miR-132-3p level in NGN2-iNs” value was -0.682. For `CCOc1ccn(-c2ccc(F)cc2)c(=O)c1C(=O)Nc1ccc(Oc2ccnc(N)c2Cl)c(F)c1`, the “miR-132-3p level in NGN2-iNs” value was -1.06. With `Cc1nc(Nc2n[nH]c3c2CN(C(=O)N[C@H](CN(C)C)c2ccccc2)C3(C)C)c2sccc2n1` the “miR-132-3p level in NGN2-iNs” value was 0.545.

— the supplement of paper PMC10663445
